No constants are given. Whether binding was seen depends on the method and setting. Some entries that bind do so weakly or less than the wild type.
How the values were obtained:
[1] = molecular target: E. coli single-stranded DNA-binding protein, wild type (E. coli) (UniProt P0AGE0); assay: AUC; sedimentation velocity; χψ titrated to 0.35 μM cognate SSB without poly(dT), low salt buffer (5 mM NaCl, 5 mM KPi pH 7.4, 0.87 M glycerol, 0.5 mM DTT), 50000 rpm, 20°C, 230 nm; both purified
[2] = molecular target: E. coli single-stranded DNA-binding protein, wild type (E. coli) (UniProt P0AGE0); assay: AUC; sedimentation velocity, c(s) distributions of 2.2 µM SSB without or with a nine-fold (EcoSSB+Gly) or seven-fold (EcoSSB wild-type) molar excess of χψ; high salt buffer, 50000 rpm, 20°C, 280 nm; both purified

Amino acid sequences for entries named in this document (tags omitted). A change or cut given only in a name is not applied to a line headed by its entry.
UniProt P0AGE0: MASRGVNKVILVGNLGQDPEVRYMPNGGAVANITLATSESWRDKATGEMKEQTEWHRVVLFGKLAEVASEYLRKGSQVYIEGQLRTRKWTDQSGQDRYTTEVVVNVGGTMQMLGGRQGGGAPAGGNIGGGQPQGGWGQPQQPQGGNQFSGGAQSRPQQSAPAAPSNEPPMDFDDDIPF
UniProt P28905: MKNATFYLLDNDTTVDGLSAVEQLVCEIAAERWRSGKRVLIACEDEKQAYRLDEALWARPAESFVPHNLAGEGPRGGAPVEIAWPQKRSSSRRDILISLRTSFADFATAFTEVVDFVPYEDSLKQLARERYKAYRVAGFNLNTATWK

Substance: E. coli χψ complex (from UniProt P28905 1-147; P28632 1-137)
- binding [1]: binds weakly
- binding [2]: binds
